Measurements from patent US8859466B2, “Oxaspirocyclic spiro-substituted tetramic acid and tetronic acid derivatives” (Bayer CropScience AG, priority 2007, dated 2014).
Some entries share one result that the patent states for a list of compounds.

What was measured:
Assay in all cases: Herbicidal pre-emergence action
Type in all cases: in vivo
Conditions in all cases: pre-emergence method, 320 g/ha of a.i., visual assessment after 3 weeks
Echinocloa crus-galli = test system: Echinocloa crus-galli
Lolium multiflorum = test system: Lolium multiflorum
Setaria viridis = test system: Setaria viridis

Measured: herbicidal activity in percent

COc1cc(C)cc(Cl)c1C1=C(O)C2(CCC3(CCCO3)CC2)NC1=O (mixture of isomers) [Example I-1-a-13]
≥ 80%: all assays above
